The subject of the experiment is CD2F1 mice, L1210 leukemia ip, survival T/C. Kind of experiment: NCI In Vivo Anticancer Drug Screen. Data for tumor model L1210 Leukemia (intraperitoneal) in CD2F1 (CDF1) mice. To be noted: higher T/C = longer survival. Summed up:
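Vehicle-treated tumor-bearing mice served as controls (C) for compound-treated mice (T). Reported figure is T divided by C.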

The mark [1] stands for this setting: T/C endpoint: mean survival time, dose: 100.0 mg/kg/injection, schedule: Q01DX009 (ip), vehicle: other.

The structures appear in SMILES notation. The list is a part of this screen's results and no random one: it is rich in T/C values a quarter to a half above the control, in often repeated tests (any T/C) and in doses without a T/C. Other doses and runs of a compound stand elsewhere. T/C is the treated group as % of the vehicle group. Some entries give survivors of the animals treated and no T/C: the source holds a T/C of zero for them, seemingly a mark for toxic or unscored doses. Some doses without a T/C left all or most animals alive at the check, yet need not have been tolerated: the source hardly ever lists a survival T/C far under the control, and the zero likely stands for such cases as well. Counts of survivors are from the toxicity check (mostly the fifth day) where no day follows; animals may have died later. Schedule codes are those of the source, read here as Q, the interval in days (D) or hours (H), X, the number of doses. Some entries hold several experiments; the results are listed from low to high. For survival time, the PubChem record calls one and a half times the control and up active, and a quarter to a half above the control has no call in these data; cut-offs in other NCI protocols can differ. Some T/C values are followed by the survivors on the day toxicity was checked, most often the fifth; without a count, all were alive then.

As for `C[n+]1c(-c2cccc3ccccc23)c2cc(N)ccc2c2ccccc21`, the survivor count by setting is: (T/C endpoint: mean survival time, dose: 25.0 mg/kg/injection, schedule: Q01DX009 (ip), vehicle: water) 1 of 6; (T/C endpoint: mean survival time, dose: 50.0 mg/kg/injection, schedule: Q01DX009 (ip), vehicle: saline) 0 of 6; (T/C endpoint: mean survival time, dose: 50.0 mg/kg/injection, schedule: Q01DX009 (ip), vehicle: water) 0 of 6; (T/C endpoint: mean survival time, dose: 100.0 mg/kg/injection, schedule: Q01DX009 (ip), vehicle: water) 0 of 6.
Consider `CC(C)NC(=O)c1ccc(N=NN(C)C)cc1`, for which the T/C is 128 % of control (T/C endpoint: mean survival time, dose: 25.0 mg/kg/injection, schedule: Q01DX009 (ip), vehicle: other) and 132 % of control [4 of 6 alive] under setting [1]. Moreover, the survivor count by setting is: (T/C endpoint: mean survival time, dose: 100.0 mg/kg/injection, schedule: Q01DX009 (ip), vehicle: DMSO) 6 of 6; under setting [1], 3 of 6; (T/C endpoint: mean survival time, dose: 200.0 mg/kg/injection, schedule: Q01DX009 (ip), vehicle: DMSO) 4 of 6; (T/C endpoint: mean survival time, dose: 200.0 mg/kg/injection, schedule: Q01DX009 (ip), vehicle: other) 1 of 6, 2 of 6, 3 of 6; (T/C endpoint: mean survival time, dose: 400.0 mg/kg/injection, schedule: Q01DX009 (ip), vehicle: DMSO) 0 of 6; (T/C endpoint: mean survival time, dose: 400.0 mg/kg/injection, schedule: Q01DX009 (ip), vehicle: other) 2 of 6.
For the compound `CCCCCCCCCCCCOc1ccc(Sc2ccc(OCCCCCCCCCCCC)cc2C)c(C)c1`, the survivor count by setting is: (T/C endpoint: mean survival time, dose: 200.0 mg/kg/injection, schedule: Q01DX001 (ip), vehicle: saline with Tween-80) 6 of 6; (T/C endpoint: mean survival time, dose: 400.0 mg/kg/injection, schedule: Q01DX001 (ip), vehicle: saline with Tween-80) 6 of 6.
As for `O=C(O)[C@H](Cc1ccccc1)N1C(=O)c2ccccc2C1=O`, for the setting “T/C endpoint: median survival time, dose: 1200.0 mg/kg/injection, schedule: Q01DX005 (ip), vehicle: DMSO”, the survivor count was 0 of 6.
On to `Cc1ccc(NC(=O)CCl)cc1Cl`, for which the survivor count is, setting by setting: (T/C endpoint: mean survival time, dose: 200.0 mg/kg/injection, schedule: Q01DX009 (ip), vehicle: saline with Tween-80) 3 of 6; (T/C endpoint: mean survival time, dose: 400.0 mg/kg/injection, schedule: Q04DX003 (ip), vehicle: saline with Tween-80) 2 of 6.
On to `CC(C)CC(C)NCCO` (stereo not given), for which, for the setting “T/C endpoint: mean survival time, dose: 300.0 mg/kg/injection, schedule: Q01DX001 (ip), vehicle: saline”, the survivor count is reported as 0 of 6.
For the compound `COc1ccc([N+]2=Cc3cc(OC)c(OC)cc3CC2)cc1OC`, the survivor count (T/C endpoint: mean survival time, dose: 200.0 mg/kg/injection, schedule: Q01DX009 (ip), vehicle: water) is 3 of 6.
On to `CO[C@H](/C(C)=C/C=C/C(C)=C/c1coc(C)n1)[C@H](C)[C@H]1C[C@@H](O)[C@@]2(C)O[C@H]2/C=C/[C@@H](C)[C@@H]2C[C@@H](CC(=O)O2)C[C@H]2O[C@@H]2C(=O)O1`, for which the T/C (T/C endpoint: median survival time, dose: 0.25 mg/kg/injection, schedule: Q01DX009 (ip), vehicle: Klucel (hydroxypropylcellulose) (HPC)) is 132 % of control; the T/C (T/C endpoint: median survival time, dose: 80.0 micrograms/kg/injection, schedule: Q01DX009 (ip), vehicle: Klucel (hydroxypropylcellulose) (HPC)) was 126 % of control; the T/C (T/C endpoint: median survival time, dose: 160.0 micrograms/kg/injection, schedule: Q01DX009 (ip), vehicle: Klucel (hydroxypropylcellulose) (HPC)) was 146 % of control; the T/C (T/C endpoint: median survival time, dose: 320.0 micrograms/kg/injection, schedule: Q01DX009 (ip), vehicle: Klucel (hydroxypropylcellulose) (HPC)) is 138 % of control; the T/C (T/C endpoint: median survival time, dose: 640.0 micrograms/kg/injection, schedule: Q01DX009 (ip), vehicle: Klucel (hydroxypropylcellulose) (HPC)) was 134 % of control. For the same compound, the survivor count (T/C endpoint: median survival time, dose: 1.0 mg/kg/injection, schedule: Q01DX009 (ip), vehicle: Klucel (hydroxypropylcellulose) (HPC)) was 6 of 6; the survivor count (T/C endpoint: median survival time, dose: 2.0 mg/kg/injection, schedule: Q01DX009 (ip), vehicle: Klucel (hydroxypropylcellulose) (HPC)) is reported as 1 of 6; the survivor count (T/C endpoint: median survival time, dose: 4.0 mg/kg/injection, schedule: Q01DX009 (ip), vehicle: Klucel (hydroxypropylcellulose) (HPC)) is listed as 0 of 6.
Regarding `CC(C)=CCNc1ncnc2c1ncn2C1OC(COP(=O)(O)O)C(O)C1O` (stereo not given), the survivor count (T/C endpoint: mean survival time, dose: 400.0 mg/kg/injection, schedule: Q01DX005 (ip), vehicle: water) is listed as 0 of 6.
As for `CCN(CC)CCSC(=O)c1ccccc1`, where the note is “T/C endpoint: mean survival time, dose: 200.0 mg/kg/injection, schedule: Q01DX009 (ip), vehicle: saline”, the survivor count was 0 of 3.
Take `C/C(=C/C(=O)O)C(=O)O.[NH-]C1CCCCC1[NH-].[Pt+2]`: the T/C (T/C endpoint: median survival time, dose: 100.0 mg/kg/injection, schedule: Q04DX003 (ip), vehicle: saline) is 132 and 133 % of control.
On to `CO[C@@]12[C@@H]3N[C@@H]3CN1C1=C(C(=O)C(NCCc3ccccn3)=C(C)C1=O)[C@@H]2COC(N)=O`, for which the T/C was 142 % of control (T/C endpoint: median survival time, dose: 25.0 mg/kg/injection, schedule: Q01DX001 (ip), vehicle: saline with Tween-80); 126 % of control (T/C endpoint: median survival time, dose: 6250.0 micrograms/kg/injection, schedule: Q01DX001 (ip), vehicle: saline with Tween-80); 143 % of control (T/C endpoint: median survival time, dose: 12500.0 micrograms/kg/injection, schedule: Q01DX001 (ip), vehicle: saline with Tween-80). For the same compound, the survivor count (T/C endpoint: median survival time, dose: 50.0 mg/kg/injection, schedule: Q01DX005 (ip), vehicle: saline with Tween-80) is 1 of 6 and the survivor count (T/C endpoint: median survival time, dose: 138.89 mg/kg/injection, schedule: Q01DX001 (ip), vehicle: saline with Tween-80) is given as 3 of 6.

For the origin of these results see PubChem BioAssay AID256 (DTP/NCI, 2004).
